Laboratory results as given in publication PMC5008331.

Amino acid sequences for entries named in this document (tags omitted). A change or cut given only in a name is not applied to a line headed by its entry.
UniProt P14404: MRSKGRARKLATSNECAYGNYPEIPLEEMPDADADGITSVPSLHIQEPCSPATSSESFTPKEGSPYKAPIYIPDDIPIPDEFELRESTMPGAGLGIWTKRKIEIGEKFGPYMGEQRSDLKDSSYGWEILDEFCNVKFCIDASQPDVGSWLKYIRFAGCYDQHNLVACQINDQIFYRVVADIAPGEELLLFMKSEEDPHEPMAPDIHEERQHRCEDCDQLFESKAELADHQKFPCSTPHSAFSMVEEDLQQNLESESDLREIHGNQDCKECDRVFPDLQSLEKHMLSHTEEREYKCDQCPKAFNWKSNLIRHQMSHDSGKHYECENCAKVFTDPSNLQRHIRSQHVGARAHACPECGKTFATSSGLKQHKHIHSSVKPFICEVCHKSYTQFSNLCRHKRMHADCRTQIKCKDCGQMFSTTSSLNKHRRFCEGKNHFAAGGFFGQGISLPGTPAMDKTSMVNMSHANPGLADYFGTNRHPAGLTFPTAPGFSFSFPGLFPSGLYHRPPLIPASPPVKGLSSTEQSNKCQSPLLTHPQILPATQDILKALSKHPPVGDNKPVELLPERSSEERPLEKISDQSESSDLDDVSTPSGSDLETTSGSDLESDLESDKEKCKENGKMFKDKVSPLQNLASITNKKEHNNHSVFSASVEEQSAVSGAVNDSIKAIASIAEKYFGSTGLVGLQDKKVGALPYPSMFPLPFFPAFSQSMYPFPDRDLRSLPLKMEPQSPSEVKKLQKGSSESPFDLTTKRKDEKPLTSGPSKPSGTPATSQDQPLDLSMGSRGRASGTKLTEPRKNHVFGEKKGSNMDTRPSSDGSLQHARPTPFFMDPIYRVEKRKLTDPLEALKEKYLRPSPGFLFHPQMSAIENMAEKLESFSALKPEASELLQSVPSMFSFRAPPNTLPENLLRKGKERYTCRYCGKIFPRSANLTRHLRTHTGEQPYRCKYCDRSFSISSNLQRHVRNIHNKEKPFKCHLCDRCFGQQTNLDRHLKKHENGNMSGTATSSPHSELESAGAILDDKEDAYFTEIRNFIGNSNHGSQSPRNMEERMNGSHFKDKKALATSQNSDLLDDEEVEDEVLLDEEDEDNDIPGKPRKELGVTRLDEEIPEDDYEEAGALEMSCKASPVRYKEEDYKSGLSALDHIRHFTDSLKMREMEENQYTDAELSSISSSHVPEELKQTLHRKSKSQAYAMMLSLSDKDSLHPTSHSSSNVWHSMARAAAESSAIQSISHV

How the values were obtained:
[1] = target: Evi1 (recombinant, Cusabio) (UniProt P14404); assay: competition with a labelled probe; settings: 100-fold molar excess unlabeled WT probe reduced complex; LightShift Chemiluminescent EMSA Kit per manual; buffer composition, pH and temperature not stated; nondenaturing PAGE; commercial protein
[2] = target: Evi1 (recombinant, Cusabio) (UniProt P14404); assay: EMSA; settings: LightShift Chemiluminescent EMSA Kit per manual; buffer composition, pH and temperature not stated; nondenaturing PAGE; commercial protein

## AAGGAAAGAATAGAATAGAACGGC (double strand) [AK015487 promoter EMSA probe (WT)]
[1]
  binding result: binds
[2]
  binding result: binds

Construct, isoform or probe ends are uncertain for at least one entry.
